These are yes or no findings as the source states them, for the method shown. Some entries that bind do so weakly or less than the wild type.
What was measured:
[1] = target: human PD-1 expressed on the surface of cells (NSO cells expressing human PD-1; MNFAT-luc2/PD-1 Jurkat cells) (human) (UniProt Q15116); test: FACS saturation binding to NSO cells expressing human PD-1
[2] = target: human PD-1 expressed on the surface of cells (NSO cells expressing human PD-1; MNFAT-luc2/PD-1 Jurkat cells) (human) (UniProt Q15116); test: FACS saturation binding on NSO cells expressing human PD-1, goat anti-human-APC, MFI, 1:4 dilutions
[3] = target: human PD-1 expressed on the surface of cells (NSO cells expressing human PD-1; MNFAT-luc2/PD-1 Jurkat cells) (human) (UniProt Q15116); test: FACS blocking on NSO cells expressing human PD-1, 1:4 dilutions, MFI; blocked ligand: biotinylated sPD-L1, streptavidin-PE
[4] = target: human PD-1 expressed on the surface of cells (NSO cells expressing human PD-1; MNFAT-luc2/PD-1 Jurkat cells) (human) (UniProt Q15116); test: FACS blocking on NSO cells expressing human PD-1, 1:4 dilutions, MFI; blocked ligand: biotinylated sPD-L2, streptavidin-PE

Chains of the proteins cited; added tags and fusions are not shown. Lines headed by an entry give the natural chain unless they say otherwise; changes in a name come on top.
UniProt Q15116: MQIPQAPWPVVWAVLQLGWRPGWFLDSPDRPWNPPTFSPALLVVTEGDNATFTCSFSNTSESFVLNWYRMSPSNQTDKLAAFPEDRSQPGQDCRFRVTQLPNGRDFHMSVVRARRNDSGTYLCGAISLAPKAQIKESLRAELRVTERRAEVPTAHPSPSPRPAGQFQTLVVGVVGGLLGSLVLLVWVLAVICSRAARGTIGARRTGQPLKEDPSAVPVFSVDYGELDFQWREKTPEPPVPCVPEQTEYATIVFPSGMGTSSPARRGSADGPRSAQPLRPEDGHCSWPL

Measured: binding

B1: hPD-1 mAb 2 IgG1 (AA) (antibody, V domains shown)
VH: EVQLVESGGGLVQPGGSLRLSCAASGFVFSSFGMHWVRQAPGKGLEWVAYISSGSMSISYADTVKGRFTISRDNAKNTLYLQMNSLRTEDTALYYCASLSDYFDYWGQGTTVTVSS
VL: DVVMTQSPLSLPVTLGQPASISCRSSQSLVHSTGNTYLHWYLQKPGQSPQLLIYRVSNRFSGVPDRFSGSGSGTDFTLKISRVEAEDVGVYYCSQTTHVPWTFGQGTKLEIKR
binds: [1] | [2] | [3] | [4]

B2: hPD-1 mAb 15 IgG1 (AA) (antibody, V domains shown)
VH: EVQLVESGGGLVRPGGSLRLSCAASGFTFSSYLISWVRQAPGKGLEWVAAISGGGADTYYADSVKGRFTISRDNAKNSLYLQMNSLRAEDTATYYCARRGTYAMDYWGQGTLVTVSS
VL: DIQMTQSPSSLSASVGDRVTITCLASQTIGTWLAWYQQKPGKAPKLLIYAATSLADGVPSRFSGSGSGTDFTFTISSLQPEDFATYYCQQLYSIPWTFGQGTKLEIKR
binds: [1] | [2] | [3] | [4]

Source: patent US12534531
